Data from the supplement of paper PMC10849652.
The other results are listed elsewhere or left out.

Amino acid sequences for entries named in this document (tags omitted). A change or cut given only in a name is not applied to a line headed by its entry.
UniProt Q9UPY8, whole entry, looked up: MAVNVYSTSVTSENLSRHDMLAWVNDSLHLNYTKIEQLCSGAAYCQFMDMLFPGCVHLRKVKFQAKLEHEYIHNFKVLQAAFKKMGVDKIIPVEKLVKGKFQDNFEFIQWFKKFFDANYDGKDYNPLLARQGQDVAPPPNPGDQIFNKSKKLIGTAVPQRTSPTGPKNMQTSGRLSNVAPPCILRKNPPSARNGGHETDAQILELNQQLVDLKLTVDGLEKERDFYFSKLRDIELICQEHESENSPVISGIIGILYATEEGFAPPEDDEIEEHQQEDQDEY
UniProt Q9H063: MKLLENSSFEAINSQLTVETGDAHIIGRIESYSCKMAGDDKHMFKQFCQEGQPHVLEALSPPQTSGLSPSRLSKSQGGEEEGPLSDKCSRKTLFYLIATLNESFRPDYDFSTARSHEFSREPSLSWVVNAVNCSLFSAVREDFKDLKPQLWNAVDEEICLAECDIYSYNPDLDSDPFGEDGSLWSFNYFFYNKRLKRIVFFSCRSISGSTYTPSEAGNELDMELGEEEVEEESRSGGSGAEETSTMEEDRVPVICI
UniProt Q6P9F7: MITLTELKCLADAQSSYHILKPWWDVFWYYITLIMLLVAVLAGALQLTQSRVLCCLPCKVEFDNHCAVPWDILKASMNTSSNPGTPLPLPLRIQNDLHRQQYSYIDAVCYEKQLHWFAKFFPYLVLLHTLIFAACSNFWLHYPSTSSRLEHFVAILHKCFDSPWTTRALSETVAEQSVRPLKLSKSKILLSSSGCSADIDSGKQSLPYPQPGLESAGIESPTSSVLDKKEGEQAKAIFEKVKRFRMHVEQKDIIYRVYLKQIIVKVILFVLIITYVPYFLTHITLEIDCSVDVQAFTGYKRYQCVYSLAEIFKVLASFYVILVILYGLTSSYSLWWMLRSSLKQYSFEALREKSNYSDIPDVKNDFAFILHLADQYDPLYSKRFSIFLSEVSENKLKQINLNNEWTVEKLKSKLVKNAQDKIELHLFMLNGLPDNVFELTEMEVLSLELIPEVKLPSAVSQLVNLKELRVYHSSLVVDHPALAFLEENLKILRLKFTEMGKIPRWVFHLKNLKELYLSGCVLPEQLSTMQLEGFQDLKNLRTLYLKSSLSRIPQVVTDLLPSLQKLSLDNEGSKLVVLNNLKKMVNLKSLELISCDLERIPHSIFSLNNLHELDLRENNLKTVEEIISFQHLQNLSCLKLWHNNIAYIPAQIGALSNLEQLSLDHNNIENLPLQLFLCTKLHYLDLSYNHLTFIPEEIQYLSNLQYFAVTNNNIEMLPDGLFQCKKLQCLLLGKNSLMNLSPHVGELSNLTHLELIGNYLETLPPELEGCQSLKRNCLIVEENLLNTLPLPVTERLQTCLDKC
UniProt Q9ULX9: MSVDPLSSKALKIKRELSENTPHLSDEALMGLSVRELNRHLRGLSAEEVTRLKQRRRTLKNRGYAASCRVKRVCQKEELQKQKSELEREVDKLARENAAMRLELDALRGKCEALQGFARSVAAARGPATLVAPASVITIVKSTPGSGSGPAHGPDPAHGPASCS
UniProt Q96LZ2: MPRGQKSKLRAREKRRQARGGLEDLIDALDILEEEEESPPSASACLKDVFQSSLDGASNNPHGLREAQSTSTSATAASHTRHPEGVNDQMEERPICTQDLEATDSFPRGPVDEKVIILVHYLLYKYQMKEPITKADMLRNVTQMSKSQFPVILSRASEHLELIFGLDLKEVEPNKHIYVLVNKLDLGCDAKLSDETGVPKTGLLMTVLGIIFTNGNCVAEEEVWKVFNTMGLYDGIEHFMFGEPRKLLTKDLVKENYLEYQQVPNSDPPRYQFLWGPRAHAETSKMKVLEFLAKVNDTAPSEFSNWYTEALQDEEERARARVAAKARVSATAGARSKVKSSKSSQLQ
UniProt O15525: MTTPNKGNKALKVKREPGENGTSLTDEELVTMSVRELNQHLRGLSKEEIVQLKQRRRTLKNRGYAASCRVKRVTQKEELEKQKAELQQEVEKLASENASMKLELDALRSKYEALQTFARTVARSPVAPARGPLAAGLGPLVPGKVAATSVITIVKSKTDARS
UniProt Q9Y4Y9: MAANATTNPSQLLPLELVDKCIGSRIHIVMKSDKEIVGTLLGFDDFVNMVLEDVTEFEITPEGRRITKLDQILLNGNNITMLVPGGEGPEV

Legend:
Experiment in all cases: log2 fold change, soluble protein after heating vs DMSO (PISA); higher = thermal stabilisation; K562 cells, 10 uM, 30 min; active = over 0.2 and 3.5 SD of the protein, either way, in both replicates (recomputed)
[1] = compound: C/C(=N\NC(=O)C1=CC(=CC=C1)S(=O)(=O)N2CCOCC2)/C3=C(C=CC(=C3)Cl)O
How it was run: (§1)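 Quantification of soluble protein used TMTpro 16plex LC-MS/MS, with channel sums equalised. Samples were the supernatant after 21,000xg for 90 min of pooled aliquots from K562 cells (2×10^6 cells/mL) treated with 10 μM compound for 30 min, heated for 3 min over 48°C-58°C, and extracted in PBS with 0.5% NP-40 at 4°C. Values, from duplicates, describe thermal stability against control samples on a log2 fold-change scale.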

[2] = compound: C1=CC2=C(C=CC(=C2)/C=C\3/C(=O)NC(=NCC4=CC=CS4)S3)N=C1
How it was run: as §1

[3] = compound: C1=CC=C2C(=C1)C3=NNC4=CC=CC(=C43)C2=O
How it was run: as §1

[4] = compound: C1CCN(C1)C(=O)NC2=CC=CC(=C2)NC3=NC=C(C(=N3)NCCC4=CN=CN4)Br
How it was run: as §1

[5] = compound: C1CN(CCC1(CC2=CC=C(C=C2)Cl)N)C3=NC=NC4=C3C=CN4
How it was run: as §1

[6] = compound: C1=CC(=C(C=C1Cl)C2=NC3=NC=CN=C3C(=N2)NC4=CC=NC=C4)F
How it was run: as §1

[7] = compound: C1=CC=C(C=C1)C2=NC(=C(N2)C3=CC=NC=C3)C4=CC(=C(C=C4)Cl)O
How it was run: as §1

erlotinib = compound: C#Cc1cccc(Nc2ncnc3cc(OCCOC)c(OCCOC)cc23)c1 [erlotinib]
How it was run: as §1

[8] = compound: C1=CC(=CC=C1C2=NC3=C(N2)C=C(C=C3)C(=O)N)OC4=CC=C(C=C4)Cl
How it was run: as §1

[9] = compound: C1=CC2=NC=CN=C2C=C1/C=C/3\C(=O)NC(=O)S3
How it was run: as §1

Measured: log2 fold change

MAPRE3 isoform 2 (UniProt Q9UPY8)
inactive: [1] -0.003 | [2] -0.18 | [3] -0.073 | [4] 0.012 | [5] -0.097

LSM14A, A0A140TA76
inactive: [1] 0.16 | [2] -0.123 | [3] 0.129 | [4] 0.021 | [5] -0.06

MAN2B1 (UniProt M0QYZ1)
inactive: [1] -0.257 | [6] -0.296 | [2] 0.186 | [3] -0.196

MAF1 (UniProt Q9H063)
inactive: [7] -0.214

LRRC8B (UniProt Q6P9F7)
inactive: erlotinib -0.187 | [6] -0.025 | [8] 0.001 | [9] 0.122 | [7] -0.139

MAFF (UniProt Q9ULX9)
inactive: [1] -0.051 | [2] 0.042 | [9] -0.046 | [7] -0.057 | [3] 0.019

LYPLA1, A0A087X1K9
inactive: [7] -0.105

Two neighbouring records already listed, quoted:
LSM14A, A0A140TA76
inactive: [1] 0.16 | [2] -0.123 | [3] 0.129 | [4] 0.021 | [5] -0.06

MAN2B1 (UniProt M0QYZ1)
inactive: [1] -0.257 | [6] -0.296 | [2] 0.186 | [3] -0.196

Next results

MAGEB10 (UniProt Q96LZ2)
inactive: [1] -0.21 | [2] -0.078 | [3] 0.022 | [4] -0.094 | [5] -0.222

MAFG (UniProt O15525)
inactive: [1] -0.128 | [6] 0.022 | [2] -0.028 | [7] -0.068 | [3] 0.001

LSR (UniProt M0QZL9)
inactive: [6] 0.029

LSM5 (UniProt Q9Y4Y9)
inactive: erlotinib -0.013 | [6] 0.066 | [8] -0.001 | [9] -0.093 | [7] -0.076 | [4] 0.216 | [5] -0.078
